Data taken from ChEMBL document CHEMBL3988442, “University of Dundee, Small-Polar-MMV Screening Library” (2021).

Values are the deposited “Percent Effect”, in %.
The controls that fix the scale are not given in the record; negative values are as filed.
Compounds were drawn at random from those tested, without regard to their results.
Two or more numbers in one place are separate tests of the same structure; such repeats can differ widely.

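Viability assay of Plasmodium falciparum sporozoites; the read-out is not stated. The concentration is filed as 10 mM, unlikely as a test dose, so the dose is not known. Higher reads as lower viability (inferred: compounds with an IC50 in retests scored well above the rest). Strong results were mostly tested again. Size under these conditions: about 34,000 compounds, about 280 of them at 50% or above in at least one test.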

SMILES | Percent Effect
Cc1noc(C2CCCN(C(=O)c3cc(Cl)ccc3F)C2)n1 (stereo not given) | -2.007%
Cn1ccc2c(C(=O)N3CCC(C(N)=O)CC3)cccc21 | -8.991% and -64.67% and -58.46%
CN(Cc1ccco1)C(=O)CN1C(=O)c2ccccc2C1=O | 0.641%
OCc1cc(C2CCCN2c2ncccn2)n[nH]1 (stereo not given) | 4.243%
CCCN1CCC(Cc2nn3c(C(C)C)nnc3s2)CC1 | -0.6529%
O=C1CCCN1CC1CN(C(=O)CC2CCCC2)Cc2nccn2C1 (stereo not given) | -0.1117%
CC(=O)N1CCC(c2nn(C)c3nccnc23)C1 (stereo not given) | 16.49%
CNc1cncc(C2CCCN2C(=O)Cn2c(=O)oc3ccccc32)n1 (stereo not given) | 8.536%
[H][C@]12CN(Cc3cccnc3)C[C@@]1([H])S(=O)(=O)CC[C@@H]2C(=O)NCC(C)C | 1.491%
Cn1cccc1C(=O)N1CCN(CC2CC2)c2ncccc2C1 | -20.24%
Cc1nn(CC(C)C)c(N(C)C)c1CNCc1cccc2c1OCO2 | 5.28%
CC(C)(C)c1ncc2c(n1)CN(c1cc(NCCO)nc(N)n1)C2 | 3.201%
CN(CCNC(=O)Nc1nccs1)Cc1ccc(F)cc1 | -4.476%
[H][C@]12CCN(c3ncccn3)[C@@]1([H])CC[C@@H](COCc1ccccn1)O2 | -8.594%
CCc1c(C)nc2n(c1=O)CC(C(=O)Nc1sccc1C(=O)OC)CS2 (stereo not given) | -4.745%
CCN1C(=O)CCCC12CCCN(C(=O)c1conc1C)C2 (stereo not given) | 10.19%
CS(=O)(=O)CCNC(=O)c1ccc(-c2ccco2)[nH]c1=O | 2.64%
CCn1c(Cn2cncn2)nnc1C1CCN(Cc2ccncc2)CC1 | -17.99%
COc1ccc(CC(=O)NC2CCN(CC(F)F)CC2)cc1OC | 4.154%
[H][C@@]12CCCN1C[C@H](CCSC)N(Cc1cn(C)nc1C)C2 | 5.756%
Cc1cc(-c2cnn(CCNC(=O)Cc3ccccn3)c2C2CC2)on1 | 12.92%
CC(=O)Nc1ccc(CNC2COc3c2ccc(C)c3C)cc1 (stereo not given) | -10.54%
CS(=O)(=O)CCC(=O)Nc1cc(F)ccc1OCC1CCCO1 (stereo not given) | 15.72%
CC(C)C[C@H](N)COc1cccc(F)c1Oc1ccc(Cl)cc1 | 4.472%
CNS(=O)(=O)c1ccc(C(=O)NC2CCOc3ccccc32)o1 (stereo not given) | 3.72%
CCCC(NC(=O)c1occc1C)c1nnn[nH]1 (stereo not given) | -15.93%
COc1ccc(S(N)(=O)=O)cc1C(=O)N(C)Cc1cc(C)on1 | 9.984%
COCC(=O)N1CCC(c2cc(N(C)C)cc(C)n2)CC1 | 3.122%
Cc1cccc(C)c1OCCNC(=O)CN1CCN(C)CC1C (stereo not given) | 8.49%
CC(=O)Nc1ccc(CNCC(O)c2ccccc2)cc1 (stereo not given) | 0.7353%
CCOc1cccc2c1OCC(C(=O)NS(=O)(=O)c1ccc(C)s1)=C2 | 4%
CN(C)c1ccc(C(=O)N2CCN(CC(O)C(C)(C)C)CC2)nn1 (stereo not given) | -6.949%
O=C(O)C(F)(F)F.[H][C@@]12CCN(C(=O)NC)CC[C@]1(C(=O)N1CCOCC1)CCN2C | 9.37%
O=C(NC1CC(=O)N(Cc2cccc(F)c2)C1)c1ccncc1 (stereo not given) | -16.35%
CN1CCN(c2ncc(-c3cnccn3)c([C@H]3CCCO3)n2)CC1 | 5.47%
CC1CN(CC(=O)Nc2nncs2)CCN1Cc1nccn1C (stereo not given) | -8.104%
CC(C)S(=O)(=O)CCN1CCc2c(ncn2C2CC2)C1 | -15.47% and -2.718%
Cc1nc(-c2ccc(CC(=O)N3CCN(C(=O)C4CC4)CC3)cc2)cs1 | -5.562%
[H][C@@]12CCN(Cc3c(C)noc3C)C[C@@]1([H])O[C@@H](c1nccs1)C2 | 9.394%
COC(=O)CCCNC(=O)N1CCc2c([nH]c3ccc(Cl)cc23)C1 | 80.07% and 78.06%
O=C(c1cnc2ccccn12)N1CCCC(c2ccn[nH]2)C1 (stereo not given) | 4.118%
Cc1nc(C)n(CC2CCCN2Cc2cn(-c3ccccc3)nn2)n1 (stereo not given) | -11.76%
CC(=O)N1CCC(c2nccnc2CNC(=O)c2cc[nH]n2)CC1 | 4.156%
Nc1c(C(=O)C2CCCN(C(=O)C3CC3)C2)cnn1-c1ccc(F)cc1 (stereo not given) | 24.96% and -17.83% and 19.11%
CCN1c2ccc(-c3cncn3CCCn3ccnc3C)cc2CC1C.Cl (stereo not given) | 8.624%
NC(=O)CCN(CC(=O)NCc1ccccn1)c1ccc(F)cc1 | -8.516%
CC(C)c1nccn1C1CCCN(C(=O)c2ccc3c(c2)OCO3)C1 (stereo not given) | -3.931%
CCS(=O)(=O)c1ccc(N2CCC(NC(=O)CCC(C)C)CC2)cc1 | -3.004%
CCN(CC)Cc1nc2c(o1)CN(C(=O)c1ccncc1F)C2 | -6.048%
O=C(c1cc2c([nH]c1=O)CCC2)N1CCCC1c1ccc(F)cc1 (stereo not given) | -8.402%
CN(C)CCn1ccc2cc(NC(=O)NCc3ccon3)ccc21 | 2.924% and 0%
COc1cc2cc(C)c(SCCN3CCCCC3)nc2cc1OC.Cl | -1.062%
O=C(O)C(F)(F)F.O=C(O)C(F)(F)F.[H][C@@]12C[C@@H](C(=O)NC)N(C(C)C)[C@]1([H])CN(Cc1csc(C)n1)C2 | 4.88%
CC(C)Cc1cc(NC(=O)c2ccc[nH]2)n(C)n1 | 11.12%
O=C(Nc1cccc(CN2CCOC2=O)c1)N1CCSCC1 | -7.391%
Cl.Cn1ccnc1C1(O)CCN(C(=O)Cc2ccccc2)CC1 | -1.027%
COCCc1noc(CNC2CCCN(c3cccnn3)C2)n1 (stereo not given) | 8.288%
Cc1cc(C(=O)N2CCCN(Cc3nccn3C)CC2)no1 | 7.355%
Cc1cc(C)c(CNC(=O)N2CCN(c3ncccn3)CC2)c(=O)[nH]1 | 9.068%
O=S(=O)(NCCN1CCCCC1Cn1cncn1)c1ccccc1 (stereo not given) | -22.58%
Fc1cccc(N2CCCC3(CN(Cc4ccco4)CCO3)C2)c1.O=C(O)C(F)(F)F.O=C(O)C(F)(F)F (stereo not given) | 8.247%
COc1ccc(-c2nc(CN3CC(n4cc(C)cn4)C3)no2)cc1 | -5.453%
Cn1nc2c(cc1=O)CN(CC(=O)Nc1ccc(Cl)cn1)CC2 | 2.24%
O=C1OCCN1CCc1nc(-c2cc3c4c(c2)CC(=O)N4CCC3)cs1 | 12.59%
CC(=O)Nc1nc(C(=O)N2CCCCC2Cn2cccn2)cs1 (stereo not given) | 3.776%
N#Cc1c(F)cccc1N1CCC(NS(=O)(=O)c2cccs2)CC1 | -7.202%
Cc1nnc(CN(C)C2CCN(Cc3nnc(C4CCC4)o3)C2)n1C (stereo not given) | 2.347%
CCSCC(C)NCc1nn(C)c2ccc(C)cc12 (stereo not given) | -5.658%
CCOC1CCN(CC(=O)Nc2oc(C)c3c(C)n[nH]c(=O)c23)CC1 | 18.08% and 17.48% and -2.236%
CC(Cn1cccn1)NC(=O)NCCc1cccs1 (stereo not given) | -5.389%
Cc1cc(C)c(CNC(=O)NCCC2CCCO2)c(=O)[nH]1 (stereo not given) | 9.337%
CCNC(=O)c1ccc2c(c1)nc1n2CCN(Cc2ccco2)C1 | -12.51%
CN(Cc1nnc(-c2ccco2)o1)Cc1nc2c(s1)CCCC2 | -11.23% and -0.3712% and 0.4353%
CC(=O)N1CCC2(CCCN(C(=O)c3ccc(Cl)c(C(F)(F)F)c3)C2)C1 (stereo not given) | -148.9%
NC(=O)C1CN(c2ccc3c(Cl)ccnc3c2F)CCO1 (stereo not given) | -21.65% and -18.21%
Cc1ccccc1C(C(=O)N(C)CCc1cnn(C)c1)N(C)C (stereo not given) | -3.834%
CNS(=O)(=O)c1ccc(C(=O)N2CCCCC2c2ccc(C)cc2)o1 (stereo not given) | -0.2417%
CCc1[nH]ncc1C(=O)N1CCCC(n2ccnc2C)C1 (stereo not given) | 4.301%
COc1ccccc1-c1ccccc1CC1(C(=O)O)CCNCC1 | -0.4995%
CCc1ccsc1C(=O)N1CCN(CCN2C(=O)CCC2=O)CC1 | 9.791%
CCCc1cc(C(=O)NC(C)c2ccccc2)n(C)n1 (stereo not given) | 12.59%
Cc1nc(CN2CCCC(N(C)Cc3nnsc3Cl)C2)no1 (stereo not given) | -11.33%
COc1cccc(CN(C)Cc2nc3c(cnn3C)c(=O)[nH]2)c1OC | -1.171%
CC(C)c1nn(C)c(N2CCOCC2)c1CNC(C)c1ccccn1 (stereo not given) | 5.117%
Cl.NCc1cc(-c2ccccc2)n2nccc2n1 | 0.08467%
CC(NC(=O)C1(NC(=O)c2ccc3[nH]ncc3c2)CCCC1)C1CC1 (stereo not given) | -19.42%

11 of the entries, repeated:

* CC(C)(C)c1ncc2c(n1)CN(c1cc(NCCO)nc(N)n1)C2 | 3.201%
* O=C1CCCN1CC1CN(C(=O)CC2CCCC2)Cc2nccn2C1 (stereo not given) | -0.1117%
* CC(=O)N1CCC(c2nccnc2CNC(=O)c2cc[nH]n2)CC1 | 4.156%
* CCOC1CCN(CC(=O)Nc2oc(C)c3c(C)n[nH]c(=O)c23)CC1 | 18.08% and 17.48% and -2.236%
* Nc1c(C(=O)C2CCCN(C(=O)C3CC3)C2)cnn1-c1ccc(F)cc1 (stereo not given) | 24.96% and -17.83% and 19.11%
* CCCN1CCC(Cc2nn3c(C(C)C)nnc3s2)CC1 | -0.6529%
* CC(C)c1nn(C)c(N2CCOCC2)c1CNC(C)c1ccccn1 (stereo not given) | 5.117%
* NC(=O)C1CN(c2ccc3c(Cl)ccnc3c2F)CCO1 (stereo not given) | -21.65% and -18.21%
* COc1cc2cc(C)c(SCCN3CCCCC3)nc2cc1OC.Cl | -1.062%
* CC(=O)Nc1ccc(CNC2COc3c2ccc(C)c3C)cc1 (stereo not given) | -10.54%
* CC(NC(=O)C1(NC(=O)c2ccc3[nH]ncc3c2)CCCC1)C1CC1 (stereo not given) | -19.42%